The values below come from doi:10.1101/2022.10.30.514401.

Amino acid sequences for entries named in this document (tags omitted). A change or cut given only in a name is not applied to a line headed by its entry.
UniProt P46938: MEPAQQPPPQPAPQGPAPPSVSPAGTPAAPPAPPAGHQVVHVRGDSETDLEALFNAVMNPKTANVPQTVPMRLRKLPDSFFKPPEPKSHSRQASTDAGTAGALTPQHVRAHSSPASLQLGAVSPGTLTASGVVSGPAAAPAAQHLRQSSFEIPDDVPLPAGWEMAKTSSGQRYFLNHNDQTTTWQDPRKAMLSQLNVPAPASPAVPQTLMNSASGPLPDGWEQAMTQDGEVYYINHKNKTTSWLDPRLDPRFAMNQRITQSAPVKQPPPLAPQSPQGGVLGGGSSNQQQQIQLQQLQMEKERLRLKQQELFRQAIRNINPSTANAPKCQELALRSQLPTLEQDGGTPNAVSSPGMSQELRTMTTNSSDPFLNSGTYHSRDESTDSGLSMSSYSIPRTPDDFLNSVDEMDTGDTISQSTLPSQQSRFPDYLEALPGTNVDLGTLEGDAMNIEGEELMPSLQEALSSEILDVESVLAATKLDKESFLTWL
UniProt P63330: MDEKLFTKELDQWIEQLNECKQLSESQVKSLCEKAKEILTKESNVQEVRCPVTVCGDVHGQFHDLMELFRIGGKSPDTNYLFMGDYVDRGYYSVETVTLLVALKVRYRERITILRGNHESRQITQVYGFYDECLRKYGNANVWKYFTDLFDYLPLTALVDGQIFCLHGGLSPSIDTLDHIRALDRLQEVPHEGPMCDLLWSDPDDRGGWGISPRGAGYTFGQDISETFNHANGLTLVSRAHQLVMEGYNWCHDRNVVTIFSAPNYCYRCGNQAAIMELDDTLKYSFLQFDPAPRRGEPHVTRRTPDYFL

What all share (assay): co-IP
Assay [1] deals with YAP (mouse (endogenous in mouse ISCs)) (UniProt P46938).
For assay [2], the target named is YAP (pCMV6-YAP, mouse) (mouse) (UniProt P46938).
For assay [3] the target is unchanged. The source holds these as a separate data set.

Where two headings read alike, the source gives them in different places. Results are given in words; binding and its absence hold for the method and conditions named. In cells and extracts the contact can be indirect. For part of these data: Binding calls can cover weak binding; strength is not graded here.

Consider “protein phosphatase 2A catalytic subunit (PP2Ac) (from UniProt P63330) (enzyme)”, for which the binding result in assay [1] was “binds”. On to “PP2Ac (pCMV6-Pp2ac, mouse) (from UniProt P63330) (enzyme)”, for which the binding entry was “binds” in assay [2] and “no binding (only with LSR co-expressed)” in assay [3].
